Data taken from patent US5506256A, “Proline derivatives possessing prolyl endopeptidase-inhibitory activity” (Yoshitomi Pharmaceutical Industries, Ltd., priority 1990, dated 1996).
At least one structure is not confirmed: it was looked up by name or label, or the drawing left a doubt.

System: leucine aminopeptidase
Assay: Determination of leucine aminopeptidase-inhibitory activity
Assay type: biochemical, swine
Set-up: unit not given here
Conditions: 0.1 μM
Description: The methods for the measurement of inhibitory activities against various proteases and the method for calculating the inhibition rate are as follows.
Determination of leucine aminopeptidase-inhibitory activity
Similarly, by following the procedure mentioned above, but employing a 50 mM Tris-HCl buffer (pH 8.0) as a buffer for measurement, a […] solution of leucine aminopeptidase (derived from swine kidney, Sigma) in the same buffer as an enzyme solution and a 200 μM solution of 7-leucyl-4-methyl-coumarinamide (Peptide Institute, Inc.) in the same buffer as a substrate solution, each fluorescence (d1, d2 and d3) was determined, respectively.
Using the fluorescence x1, x2 and x3 measured in the abovementioned manner, the inhibitory rate against various proteases was calculated by the following formula where x stands for b, c, d, e or f: [formula]

For O=C(COc1ccc2c(c1)OCO2)[C@@H]1CCCN1C(=O)[C@@H]1CCCN1C(=O)NCc1ccccc1 [Compound 33, (2S)-1-[N-(Benzylaminocarbonyl)-L-prolyl]-2-{[(3,4-methylenedioxy)phenoxy]acetyl} pyrrolidine], the “inhibition rate, leucine aminopeptidase” value was 0.
